# Assay results taken from PubChem BioAssay AID2551 (National Center for Advancing Translational Sciences (NCATS), 2010).
# Protein sequences, listed by entry. Tags and fused reporters are not part of them. Lines headed by an entry give the natural chain unless they say otherwise; changes in a name come on top.
# UniProt P51450: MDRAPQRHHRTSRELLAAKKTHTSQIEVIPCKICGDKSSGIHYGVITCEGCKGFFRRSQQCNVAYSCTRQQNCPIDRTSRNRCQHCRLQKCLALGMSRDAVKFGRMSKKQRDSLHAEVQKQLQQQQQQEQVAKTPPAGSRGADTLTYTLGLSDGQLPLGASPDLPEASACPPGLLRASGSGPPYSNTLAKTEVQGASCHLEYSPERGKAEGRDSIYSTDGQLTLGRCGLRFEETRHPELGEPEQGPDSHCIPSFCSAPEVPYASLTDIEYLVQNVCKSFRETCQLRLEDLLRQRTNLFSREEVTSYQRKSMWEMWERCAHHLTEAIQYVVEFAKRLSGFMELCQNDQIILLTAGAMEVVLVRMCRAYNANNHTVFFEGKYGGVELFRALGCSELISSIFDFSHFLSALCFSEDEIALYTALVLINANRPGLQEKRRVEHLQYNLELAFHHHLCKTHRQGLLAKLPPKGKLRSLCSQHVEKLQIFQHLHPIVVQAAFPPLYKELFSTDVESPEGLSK
# Hit rate of the full screen: of about 310,000 compounds, about 17,000 (5.5%) were called active. Inconclusive means that the source gave no clear call. Such entries were picked first, then a sample of the others. Calls follow the shape of the dose curve; as a rule, active = well fitted inhibition curve with a large enough effect; inconclusive = small, poorly fitted or top-dose-only effect, or effect the other way; inactive = no such curve, though single readings can be large or run the other way. A potency beside an inconclusive call is a rough fit, not a confirmed value.
# Target: Nuclear receptor ROR-gamma (Mus musculus) (UniProt P51450)
# Experiment: qHTS for inhibitors of ROR gamma transcriptional activity; also: nearly all actives have a fitted effect of over 60% in size
# Details: Drosophila S2 Gal4-RORgamma UAS-luciferase reporter, 20 h; series mostly up to 53.6 µM
# Procedure, shortened: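 In this cell-based reporter format, copper sulfate (700 uM final) drives Gal4–ROR gamma fusion expression from a metallothionein promoter in Drosophila Schneider cells; compounds preincubated 1 hr, reporter read after 20 hr at ambient temperature.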
# Potency is read from the fitted curve at half-maximal effect.
row,Compound,Potency
1,CC(C)C(=O)NC(=S)Nc1sc2c(c1C(N)=O)CCCC2,inactive
2,Nc1nc(SCC(=O)Nc2ccccc2)nc2nc3c(cc12)CCCC3,"inconclusive: 7.94 µM [activator, partial curve]"
3,C=CCNC(=S)N/N=C/c1ccccc1OCCOc1ccccc1,active: 2.51 µM
4,Cc1ccccc1N1CCN(C2CCCN(C(=O)CCN3CCCCO3)C2)CC1 (centres undefined),"inconclusive: 6.31 µM [activator, single point]"
5,CNC(=O)c1[nH]cnc1C(=O)Nc1ccccc1OC,active: 12.6 µM
6,CCn1c(-c2ccc(N(C)C)cc2)nc2ccccc21,active: 6.31 µM
7,O=C(Cn1ncc(Cl)c(Cl)c1=O)N1CCN(S(=O)(=O)c2ccc3ccccc3c2)CC1,active: 12.6 µM
8,COc1ccnc(NCc2cccnc2)c1C#N,inactive
9,O=C(NC1CCCCCCC1)c1c(O)c2ccccc2[nH]c1=O,"inconclusive: 3.55 µM [activator, full curve]"
10,CNc1c([N+](=O)[O-])cnn1-c1cccc(Cl)n1,inactive
11,COc1ccc(-c2cc(C3CCN(CC(O)C(F)(F)F)CC3)[nH]n2)cc1 (centres undefined),inactive
12,Cc1csc(NC(=O)c2cc3c(s2)CCC3)n1,active: 2 µM
13,O=C1C=C(Nc2cccc(Cl)c2)CC(c2ccco2)C1 (centres undefined),"inconclusive: 12.6 µM [activator, single point]"
14,Cc1ccc(Cl)cc1NC(=S)N1CCC(c2ccccc2)C1 (centres undefined),"inconclusive: 3.16 µM [inhibitor, single point]"
15,O=C(CN1C(=O)c2cccnc2Oc2ccc(Cl)cc21)NCCc1ccccc1,"inconclusive: 35.5 µM [activator, single point]"
16,Cc1cc(C)n(C(=O)CCNC(=O)c2ccccc2Cl)n1,"inconclusive: 2 µM [inhibitor, partial curve]"
17,COc1ccc(OC)c(C(C)NC(=O)C(C)Cc2ccccc2)c1 (centres undefined),inactive
18,O=C(Cc1noc2ccccc12)NNC(=S)Nc1ccccc1,"inconclusive: 8.91 µM [inhibitor, partial curve]"
19,CC(C)(C)c1ccc(OCC(=O)NNC(=S)NC(=O)c2ccccc2[N+](=O)[O-])c(Br)c1,active: 11.2 µM
20,Cc1sc(NC(=O)c2ccco2)nc1-c1ccc2c(c1)CC(C)N2C(=O)C1CC1 (centres undefined),"inconclusive: 5.62 µM [activator, partial curve, poor fit]"
21,COC(=O)c1ccc(NC(=O)CSc2nc3cccnc3n2C)cc1,"inconclusive: 7.08 µM [activator, partial curve]"
22,N#Cc1c(NCCCO)nc(-c2ccco2)c2c1CCCC2,"inconclusive: 25.1 µM [inhibitor, single point]"
23,O=C(CCC(=O)c1cccs1)NCc1cccnc1,"inconclusive: 35.5 µM [inhibitor, single point]"
24,COc1ccc(-c2nc(CS(=O)(=O)CC(=O)Nc3ccc(Cl)cc3)c(C)o2)cc1,"inconclusive: 35.5 µM [activator, single point]"
25,Cc1cccc(OCCCCCN2CCOCC2)c1,"inconclusive: 5.62 µM [activator, single point]"

# Four structures from above, arranged by number of heavy atoms, high to low:
row,Compound,Potency
20,Cc1sc(NC(=O)c2ccco2)nc1-c1ccc2c(c1)CC(C)N2C(=O)C1CC1 (centres undefined),"inconclusive: 5.62 µM [activator, partial curve, poor fit]"
2,Nc1nc(SCC(=O)Nc2ccccc2)nc2nc3c(cc12)CCCC3,"inconclusive: 7.94 µM [activator, partial curve]"
18,O=C(Cc1noc2ccccc12)NNC(=S)Nc1ccccc1,"inconclusive: 8.91 µM [inhibitor, partial curve]"
23,O=C(CCC(=O)c1cccs1)NCc1cccnc1,"inconclusive: 35.5 µM [inhibitor, single point]"

# The results go on:

row,Compound,Potency
1,CCOC(=O)c1c(C)[nH]c(C(=O)COC(=O)c2ccc(O)cc2)c1C,"inconclusive: 0.562 µM [inhibitor, full curve, poor fit]"
2,CCOC(=O)c1sc(NC(=S)NC(=O)CC(C)C)cc1C,active: 5.62 µM
3,O=c1cc(O)n(-c2ccc(Cl)cc2)c(=S)[nH]1,"inconclusive: 3.98 µM [inhibitor, partial curve, poor fit]"
4,O=C1CCCCc2sc(Br)c([N+](=O)[O-])c2N1,active: 11.2 µM
5,CCCCOc1ccc(CNC(=S)N/N=C/c2ccc(OC)c(OC)c2)cc1,active: 4.47 µM
6,Cc1ccc(NC(=O)CN(C)CC(=O)Nc2c(C)cccc2C)c(Br)c1,"inconclusive: 14.1 µM [activator, partial curve]"
7,Cc1nn(-c2ccccc2)c(N2CCCC2)c1/C=N/NC(=O)c1cc2ccccc2cc1O,active: 3.55 µM
8,Cc1ccc(C)c(C2=CSC3=NCCN23)c1,"inconclusive: 35.5 µM [inhibitor, single point]"
9,N#CC1=C(N)N=C(SCc2ccccc2)C(C(N)=O)C12CCCCC2 (centres undefined),inactive
10,O=C1Cc2cc(CCN3CCN(c4nsc5ccccc45)CC3)c(Cl)cc2N1,"inconclusive: 4.47 µM [activator, full curve]"
11,O=C(Nc1ccccc1)c1nnsc1S(=O)c1ccc(Cl)cc1 (centres undefined),active: 15.8 µM
12,CCN1CCCc2cc(CN(CCN3CCOCC3)C(=S)Nc3ccc(C)cc3)ccc21,active: 3.55 µM
13,C/C(=N\NC(=O)c1c[nH]c2ccccc12)c1ccc(C)o1,inactive
14,COc1ccc(-c2n[nH]c(=S)n2-c2ccccc2C)cc1,active: 5.62 µM
15,C=Cc1cccc(NC(=O)COc2ccccc2)c1,"inconclusive: 8.91 µM [activator, partial curve, poor fit]"
16,C/C(=N/NS(=O)(=O)c1ccc(Cl)cc1)c1cccc(NC(=O)c2ccc(Cl)cc2Cl)c1,"inconclusive: 10 µM [activator, partial curve]"
17,COc1ccc(S(=O)(=O)N(C)c2ccc(C(=O)N3CCCCC3)cc2)cc1OC,"inconclusive: 12.6 µM [activator, partial curve]"
18,COc1ccc(C(=O)Oc2cccc3cccnc23)cc1[N+](=O)[O-],active: 2.24 µM
19,COc1ccc(S(=O)(=O)N2CCN(C(=O)C3CCCCC3)CC2)cc1,"inconclusive: 0.708 µM [activator, single point]"
20,Cc1ccc(-c2ccc(SCC(=O)N3CCCc4ccccc43)nn2)cc1,inactive
21,CC(=O)c1cccc(S(=O)(=O)NCC(c2ccco2)N2CCCCC2)c1 (centres undefined),"inconclusive: 11.2 µM [activator, partial curve]"
22,Cc1ccc(-c2nc(-c3ccccc3)no2)c(Cl)c1,active: 10 µM
23,Oc1ccc(N=Cc2cc(Br)c(N3CCOCC3)o2)cc1,inactive
24,COc1cc2c(cc1OC)C(C)N(C(=O)c1ccc(Cl)c(S(=O)(=O)N3CCCCC3)c1)CC2 (centres undefined),"inconclusive: 20 µM [activator, single point]"
